Data reported in patent publication US8415369B2, “Spiroheterocyclic pyrrolidine dione derivatives useful as pesticides” (Syngenta Crop Protection LLC, priority 2007, dated 2013).
Where two headings read alike, the source gives them in different places. Some results were stated once for a whole list of compounds, not compound by compound.

Experiments:
[1] = tested on: Nilaparvata Lugens (brown rice planthopper); assay: Example B9: Nilaparvata lugens, larvicide, feeding/contact (rice seedlings); format: in vivo; settings: concentration of 400 ppm; mortality, growth regulation, effects on F1 generation 6-12 days after treatment
[2] = tested on: Aphis gossypii (cotton aphid); assay: Example B13: Aphis gossypii, mixed population, systemic/feeding (pea seedling roots in test solution); format: in vivo; settings: concentration of 400 ppm; mortality 6 days later
[3] = tested on: Myzus persicae (green peach aphid); assay: Example B2: Myzus persicae, mixed population, systemic/feeding activity, curative (pea seedling roots in test solution); settings: concentration of 400 ppm; mortality checked 6 days after introduction
[4] = tested on: Aphis craccivora (pea aphid); assay: Example B11: Aphis craccivora, mixed population, systemic/feeding (pea seedling roots in test solution); format: in vivo; settings: concentration of 400 ppm; mortality 6 days later
[5] = tested on: Tetranychus urticae (two-spotted spider mite); assay: Example B3: Tetranychus urticae, mixed population, feeding/residual contact activity, preventive (bean leaf discs); format: in vivo; settings: concentration of 400 ppm; egg, larval and adult mortality checked 8 days later
[6] = tested on: Myzus persicae (green peach aphid); settings: concentration of 400 ppm; mortality checked after 6 days
[7] = tested on: Thrips tabaci (onion thrips); format: in vivo; settings: concentration of 400 ppm; mortality checked after 6 days
[8] = tested on: Aonidiella aurantii (red scale); assay: Example B15: Aonidiella aurantii on dipped potato tubers; format: in vivo; settings: concentration of 400 ppm; crawlers of next generation 6-8 weeks after application vs non treated
[9] = tested on: Bemisia tabaci (tobacco white fly); assay: Example B8: Bemisia tabaci, larvicide, contact/feeding (bean plants); format: in vivo; settings: concentration of 400 ppm; number of emerged adults three weeks later vs non treated
[10] = tested on: Frankliniella occidentalis (western flower thrips); assay: Example B7: Frankliniella occidentalis on bean leaf discs or bean plants; format: in vivo; settings: concentration of 400 ppm; reduction of treated population, 6 days (leaf discs) or 14 days (plants)
Meloidogyne incognita = assay: Example B23: Meloidogyne incognita, pouch test, contact (cucumber), gall reduction; format: in vivo; settings: concentration of 400 ppm; gall reduction in root mass 12 days after treatment
[11] = tested on: Aphis craccivora (ground nut aphid); assay: Example B14: translaminar activity against Aphis craccivora (French bean leaves); format: in vivo; settings: concentration of 400 ppm; upper leaf side painted, mortality 5 days later
[12] = tested on: Aphis grossvpii (cotton aphid); assay: Example B12: cotton aphid, mixed population, contact/feeding (pea seedlings sprayed); format: in vivo; settings: concentration of 400 ppm; mortality 6 days after treatment
[13] = tested on: Plutella xylostella (diamond back moth); assay: Example B5: Plutella xylostella, larvicide, feeding/residual contact activity, preventive (artificial diet MTP); format: in vivo; settings: concentration of 400 ppm; larval mortality, antifeedant and growth regulation after 5 days
[14] = tested on: Aphis craccivora (pea aphid); assay: Example B10: Aphis craccivora, mixed population, contact/feeding (pea seedlings sprayed); format: in vivo; settings: concentration of 400 ppm; mortality 6 days after treatment
[15] = tested on: Diabrotica balteata (corn root worm); assay: Example B6: Diabrotica balteata, larvicide, feeding/residual contact activity, preventive (artificial diet MTP); format: in vivo; settings: concentration of 400 ppm; larval mortality, antifeedant and growth regulation after 5 days

Measured: activity

CON1CCC2(CC1)NC(=O)C(c1cc(C)ccc1C)=C2OC(=O)C(C)(C)C [Compound A9]
over 80%: [1] | [2] | [3] | [4] | [5] | [6]

CCOC(=O)OC1=C(c2cc(C)ccc2C)C(=O)NC12CCN(OCC)CC2 [Compound A38]
over 80%: [3] | [6] | [7]

CCOC(=O)OC1=C(c2ccc(Cl)cc2Cl)C(=O)NC12CCN(OCC)CC2 [Compound A46]
over 80%: [3] | [6] | [7]

COCCOC1=C(c2cc(C)ccc2C)C(=O)NC12CCN(OC)CC2 [Compound A58]
over 80%: [5]

CON1CCC2(CC1)NC(=O)C(c1cc(C)ccc1C)=C2OC(=O)C(C)C [Compound A59]
over 80%: [3] | [5] | [6]

CON1CCC2(CC1)NC(=O)C(c1cc(C)ccc1C)=C2O [Compound C1, 3-(2,5-dimethyl-phenyl)-4-hydroxy-8-methoxy-1,8-diaza-spiro[4.5]dec-3-en-2-one]
not listed: [1] | [11] | [12] | [13] | [14] | [15]
over 80%: all other assays above

CON1CCC2(CC1)NC(=O)C(c1c(C)cc(C)cc1C)=C2O [Compound C2]
not listed: [8] | [9] | [10] | Meloidogyne incognita | [15]
over 80%: all other assays above

CON1CCC2(CC1)NC(=O)C(c1cc(-c3ccc(Cl)cc3)ccc1C)=C2O [Compound C6]
over 80%: [1] | [11] | [12] | [15] | [6] | [7] | [10]

CCON1CCC2(CC1)NC(=O)C(c1c(C)cc(C)cc1C)=C2O [Compound C8, 8-Ethoxy-4-hydroxy-3-(2,4,6-trimethyl-phenyl)-1,8-diaza-spiro[4.5]dec-3-en-2-one]
not listed: [4] | [5] | [8] | [9] | [10] | Meloidogyne incognita
over 80%: all other assays above
